Test results taken from paper PMC7862700.
The other results are listed elsewhere or left out. The source does not settle which construct or isoform was used.

What follows are sequences tested against T1, ETS1 (UniProt P14921) (assay: DAPPL (digital affinity profiling via proximity ligation, sequencing)). Details: 10 mM Tris-HCl pH 7.5, 50 mM NaCl, 1 mM DTT, 4% glycerol, room temperature, 30 min; GST-TFs on glutathione beads, 16-mer random dsDNA library, 0.1% …; high values mean tight binding; double strand, one strand shown; scale: fold enrichment (6-mer frequency, TF over GST control).
T1 sequence: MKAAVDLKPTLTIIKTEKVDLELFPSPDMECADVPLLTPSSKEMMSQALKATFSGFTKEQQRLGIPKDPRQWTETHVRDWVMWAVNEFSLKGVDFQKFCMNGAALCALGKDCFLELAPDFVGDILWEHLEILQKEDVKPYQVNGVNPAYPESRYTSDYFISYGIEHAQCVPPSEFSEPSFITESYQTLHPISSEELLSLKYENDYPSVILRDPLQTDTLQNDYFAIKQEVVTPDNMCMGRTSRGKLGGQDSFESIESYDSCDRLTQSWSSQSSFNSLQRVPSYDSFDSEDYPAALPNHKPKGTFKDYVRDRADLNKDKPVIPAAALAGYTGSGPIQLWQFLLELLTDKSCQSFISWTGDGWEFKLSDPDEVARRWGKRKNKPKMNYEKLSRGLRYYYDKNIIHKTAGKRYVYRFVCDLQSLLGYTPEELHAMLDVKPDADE
Work on CTAACA yielded a binding signal of 1.32.
TTATGC gave a binding signal of 1.25.
For ATTCCT, the binding signal was 1.37.
CCACTC was tested, and the binding signal was 1.27.
For GATGCA, the binding signal was 1.12.
Work on ATGTAG yielded a binding signal of 1.09.
GCACCT gave a binding signal of 1.01.
TAGTAT was tested, and the binding signal was 1.42.
CTATTA was tested, and the binding signal was 1.29.
TCGTAT was tested, and the binding signal was 0.974.
TTACGT was tested, and the binding signal was 1.15.
For CGACGC, the binding signal was 1.12.
For TCACTA, the binding signal was 1.16.
In the case of CAACTC, the binding signal is reported as 1.35.
CGAACA was tested, and the binding signal was 1.16.
For CCCCTT, the binding signal was 1.51.
Work on ATAGGG yielded a binding signal of 0.955.
With GCACGC the binding signal was 1.15.
With TAAGAA the binding signal was 1.11.
CTATTG was tested, and the binding signal was 1.23.
Sequence TAAATC has a binding signal of 1.24.
With ATAAGC the binding signal was 0.987.
With CTACTG the binding signal was 1.36.
TTGTAG gave a binding signal of 1.2.
GCTCCC showed a binding signal of 1.34.
With GTTCCC the binding signal was 1.22.
TTGCTT was tested, and the binding signal was 1.28.
Sequence TTAGGT has a binding signal of 1.07.
Work on ACAGCT yielded a binding signal of 1.16.
With TCACGT the binding signal was 1.26.
CCCCGA gave a binding signal of 1.03.
TGGTGG gave a binding signal of 1.06.
For TAGAAG, the binding signal was 1.14.
CTATTT showed a binding signal of 1.84.
With TTGTTT the binding signal was 1.35.
Work on GAAGTG yielded a binding signal of 1.48.
With CTCCAG the binding signal was 1.25.
ATCCTC gave a binding signal of 1.52.
With TGTGCA the binding signal was 1.02.
